Experimental data published in PubChem BioAssay (NCATS).
This list was built around the results that the source calls inconclusive (neither active nor inactive); the mix of calls is not that of the screen. Where the call is inconclusive, the potency comes from a doubtful curve fit. The source made the active and inactive calls. The call rests on the fitted dose curve; in most records, active means well fitted curve in the direction sought with a large enough effect; inconclusive means small, poorly fitted or top-dose-only effect, or another doubt; inactive means no such curve, though single readings can be large; an effect the other way counts as inactive or inconclusive.

Columns and labels:
[1] = Quantitative High-Throughput drug screen in 47 multiple myeloma cell lines against the NCATS MIPE library collection: KMS20_JCRB cell viability assay (AID 1918973); conditions: CellTiter-Glo ATP, 48 h; viability (% of DMSO): at 45.8 µM (top of the series); further: nearly all actives have a fitted effect of over 45% in size
Summary of the method: (§1)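 Steps: seed 500 cells per well; pin-transfer MIPE 4.0 library; incubate 48 h at 37C, 5% CO2, humidified; add CellTiter-Glo, 5 min room temperature; read luminescence.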

[2] = Quantitative High-Throughput drug screen in 47 multiple myeloma cell lines against the NCATS MIPE library collection: KMS21BM_JCRB cell viability assay (AID 1918974); conditions: ATP luminescence, 48 h; viability: at 45.8 µM (top of the series) unless noted
Summary of the method: as §1

[3] = Quantitative High-Throughput drug screen in 47 multiple myeloma cell lines against the NCATS MIPE library collection: MMM1_PLB cell viability assay (AID 1918976); further: nearly all actives have a fitted effect of over 35% in size
Summary of the method: (§2)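 qHTS format: cells plated (500/well), pin-dosed with MIPE 4.0 compounds, kept 48 h at 37 °C. Readout was CellTiter-Glo luminescence, median RLU.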

[4] = Quantitative High-Throughput drug screen in 47 multiple myeloma cell lines against the NCATS MIPE library collection: MOLP8_DSMZ cell viability assay (AID 1918977); conditions: MOLP8 myeloma viability, CellTiter-Glo ATP luminescence, 48 h; viability (% of control): at 45.8 µM (top of the series); further: nearly all actives have a fitted effect of over 45% in size;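 on viability (% of control): 100% = DMSO-only wells and 0% = media-only wells without cells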
Summary of the method: as §2

[5] = Quantitative High-Throughput drug screen in 47 multiple myeloma cell lines against the NCATS MIPE library collection: MM1S_ATCC cell viability assay (AID 1918980); further: nearly all actives have a fitted effect of over 45% in size;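 on viability (% of control): 100% = wells with DMSO only and 0% = wells with media only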
Summary of the method: as §2

[6] = Quantitative High-Throughput drug screen in 47 multiple myeloma cell lines against the NCATS MIPE library collection: KMS28PE_JCRB cell viability assay (AID 1918983); further: nearly all actives have a fitted effect of over 35% in size
Summary of the method: as §2

[7] = Quantitative High-Throughput drug screen in 47 multiple myeloma cell lines against the NCATS MIPE library collection: L363_DSMZ cell viability assay (AID 1918984); conditions: L363 myeloma viability, CellTiter-Glo ATP luminescence, 48 h; viability (% of control): at 45.8 µM (top of the series); further: nearly all actives have a fitted effect of over 40% in size
Summary of the method: as §2

[8] = Quantitative High-Throughput drug screen in 47 multiple myeloma cell lines against the NCATS MIPE library collection: KMS34_JCRB cell viability assay (AID 1918985); conditions: KMS34 myeloma viability, CellTiter-Glo ATP luminescence, 48 h; viability, percent of control: at 45.8 µM (top of the series); further: nearly all actives have a fitted effect of over 40% in size;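 on viability, percent of control: 100% = DMSO-only wells and 0% = media-only wells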
Summary of the method: as §2

[9] = Quantitative High-Throughput drug screen in 47 multiple myeloma cell lines against the NCATS MIPE library collection: OCIMY7_PLB cell viability assay (AID 1918987); conditions: OCI-MY7 myeloma viability, CellTiter-Glo ATP, 48 h; viability (% of DMSO): at 45.8 µM (top of the series); further: nearly all actives have a fitted effect of over 65% in size
Summary of the method: as §2

[10] = Quantitative High-Throughput drug screen in 47 multiple myeloma cell lines against the NCATS MIPE library collection: OCIMY5_PLB cell viability assay (AID 1918988); conditions: OCI-MY5 myeloma viability, ATP luminescence, 48 h; viability, % of control: at 45.8 µM (top of the series); further: nearly all actives have a fitted effect of over 65% in size
Summary of the method: as §2

[11] = Quantitative High-Throughput drug screen in 47 multiple myeloma cell lines against the NCATS MIPE library collection: OPM1_PLB cell viability assay (AID 1918989); further: nearly all actives have a fitted effect of over 40% in size;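 on viability (% of control): 100% = DMSO-only wells and 0% = media-only wells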
Summary of the method: as §2

[12] = Quantitative High-Throughput drug screen in 47 multiple myeloma cell lines against the NCATS MIPE library collection: U266_ATCC cell viability assay (AID 1919864); conditions: U266 myeloma viability, CellTiter-Glo ATP luminescence, 48 h; viability (% of DMSO control): at 45.8 µM (top of the series); further: nearly all actives have a fitted effect of over 35% in size;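 on viability (% of DMSO control): 0% = media-only wells without cells and 100% = DMSO-only wells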
Summary of the method: as §2

[13] = Quantitative High-Throughput drug screen in 47 multiple myeloma cell lines against the NCATS MIPE library collection: XG6_PLB cell viability assay (AID 1919865); conditions: XG6 myeloma viability, CellTiter-Glo ATP luminescence, 48 h; viability (% of control): at 45.8 µM (top of the series); further: nearly all actives have a fitted effect of over 40% in size;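 on viability (% of control): 100% = DMSO-only wells and 0% = media-only wells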
Summary of the method: as §2

[14] = Quantitative High-Throughput drug screen in 47 multiple myeloma cell lines against the NCATS MIPE library collection: XG1_PLB cell viability assay (AID 1919866); conditions: CellTiter-Glo ATP, 48 h; viability: at 45.8 µM (top of the series); further: nearly all actives have a fitted effect of over 35% in size
Summary of the method: as §2

[15] = Quantitative High-Throughput drug screen in 47 multiple myeloma cell lines against the NCATS MIPE library collection: NCIH929_DSMZ cell viability assay (AID 1918978); further: nearly all actives have a fitted effect of over 35% in size
Summary of the method: as §2

[16] = Quantitative High-Throughput drug screen in 47 multiple myeloma cell lines against the NCATS MIPE library collection: MM1R_ATCC cell viability assay (AID 1918981); further: nearly all actives have a fitted effect of over 35% in size
Summary of the method: as §2

[17] = Quantitative High-Throughput drug screen in 47 multiple myeloma cell lines against the NCATS MIPE library collection: LP1_DSMZ cell viability assay (AID 1918982); conditions: LP1 myeloma viability, CellTiter-Glo ATP luminescence, 48 h; viability (% of control): at 45.8 µM (top of the series); further: nearly all actives have a fitted effect of over 35% in size
Summary of the method: as §2

[18] = Quantitative High-Throughput drug screen in 47 multiple myeloma cell lines against the NCATS MIPE library collection: SKMM1_PLB cell viability assay (AID 1919863); conditions: SKMM1 myeloma viability, CellTiter-Glo ATP, 48 h; viability: stronger effect = lower value; further: nearly all actives have a fitted effect of over 35% in size
Summary of the method: as §2

[19] = Quantitative High-Throughput drug screen in 47 multiple myeloma cell lines against the NCATS MIPE library collection: OCIMY1_PLB cell viability assay (AID 1918979); conditions: OCI-MY1 myeloma viability, CellTiter-Glo ATP, 48 h; viability: at 45.8 µM (top of the series) unless noted; further: nearly all actives have a fitted effect of over 35% in size;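 on viability: 100% = DMSO-only wells and 0% = cell-free media-only wells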
Summary of the method: as §2
Potency means the concentration at half of the fitted maximal effect.

SMILES	Potency [1]	Potency [2]	Potency [3]	Potency [4]	Potency [5]	Potency [6]	Potency [7]	Potency [8]	Potency [9]	Potency [10]	Potency [11]	Potency [12]	Potency [13]	Potency [14]	Potency [15]	Potency [16]	Potency [17]	Potency [18]	Potency [19]	viability [18]
CN[C@H]1[C@@H](O[C@@H]2[C@H](O[C@@H]3[C@@H](O)[C@@H](O)[C@@H](N=C(N)N)[C@@H](O)[C@@H]3N=C(N)N)O[C@H](C)[C@@]2(O)C=O)O[C@@H](CO)[C@@H](O)[C@H]1O	inconclusive: 0.0005 µM	inconclusive: 9.45 µM [rising, partial curve, poor fit]	inconclusive: 0.336 µM [cytotoxic, full curve, poor fit]	inconclusive: 0.4 nM [cytotoxic]	inactive	inactive	active: 5.3 nM	inactive	inconclusive: 0.266 µM [rising, partial curve, poor fit]	inconclusive: 0.0003 µM [rising, full curve, poor fit]	inactive	inactive	inactive	inactive	–	–	–	–	–	–
CC[C@H](CC#N)OC(=O)N[C@@H](C)c1cccc(NC(=O)Nc2ccc(-c3cnco3)c(OC)c2)c1	inconclusive: 10.5 µM [cytotoxic, single point]	inconclusive: 37.2 µM [cytotoxic, partial curve, poor fit]	–	inconclusive: 332 nM [cytotoxic, partial curve, poor fit]	–	–	active: 18700 nM	inconclusive: 7.43 µM [cytotoxic, partial curve, poor fit]	–	–	–	–	active: 2.96 µM	inconclusive: 0.469 µM [cytotoxic, full curve]	inconclusive: 4.18 µM [cytotoxic, full curve]	inconclusive: 5.9 µM [cytotoxic, partial curve]	inconclusive: 5.9 µM [cytotoxic, partial curve]	–	–	–
CC(C)CC(=O)Nc1n[nH]c2c1CN(C(=O)C1CCN(C)CC1)C2(C)C	active: 1.05 µM	active: 0.0296 µM	active: 4.69 µM	active: 418 nM	–	–	active: 833 nM	–	–	active: 1.32 µM	–	–	–	–	–	–	–	active: 4.69 µM	–	–
CC(C)(C)c1cc(NC(=O)Nc2ccc(-c3cn4c(n3)sc3cc(OCCN5CCOCC5)ccc34)cc2)no1	inconclusive: 0.166 µM [cytotoxic, full curve, poor fit]	inactive	inconclusive: 3.32 µM [cytotoxic, full curve]	inconclusive: 18700 nM [cytotoxic, partial curve]	inactive	inconclusive: 0.0019 µM [rising, full curve, poor fit]	inactive	inconclusive: 16.6 µM [cytotoxic, partial curve, poor fit]	inactive	–	inconclusive: 332 nM [cytotoxic, full curve]	inconclusive: 0.0083 µM [rising, full curve, poor fit]	active: 0.418 µM	inconclusive: 0.332 µM [cytotoxic, full curve]	–	–	inconclusive: 0.935 µM [cytotoxic, full curve]	inconclusive: 37.2 µM [cytotoxic, single point]	inconclusive: 29.6 µM [cytotoxic, single point]	–
Cc1cc(OCCCS(C)(=O)=O)cc(C)c1-c1cccc(COc2ccc3c(c2)OC[C@H]3CC(=O)O)c1	inconclusive: 20.9 µM [cytotoxic, partial curve, poor fit]	inconclusive: 33.2 µM [rising, single point]	–	inconclusive: 11800 nM [cytotoxic, partial curve, poor fit]	inconclusive: 0.0372 µM [cytotoxic, full curve, poor fit]	active: 20.9 µM	inconclusive: 2350 nM [cytotoxic, partial curve, poor fit]	–	active: 18.7 µM	inconclusive: 20.9 µM [cytotoxic, partial curve, poor fit]	–	–	active: 23.5 µM	–	active: 20.9 µM	active: 6.62 µM	active: 16.6 µM	–	–	–
CC(C)NC[C@@H](C(=O)N1CCN(c2ncnc3c2[C@H](C)C[C@H]3O)CC1)c1ccc(Cl)cc1	active: 0.743 µM	inconclusive: 37.2 µM [rising, partial curve, poor fit]	active: 0.0264 µM	active: 296 nM	–	active: 1.48 µM	active: 37.2 nM	–	inconclusive: 0.418 µM [cytotoxic, full curve, poor fit]	–	active: 372 nM	–	active: 1.66 µM	–	–	–	inconclusive: 11.8 µM [cytotoxic, partial curve, poor fit]	active: 10.5 µM	–	–
C=C1c2cccc(O)c2C(O)=C2C(=O)[C@@]3(O)C(O)=C(C(N)=O)C(=O)[C@@H](N(C)C)[C@@H]3[C@@H](O)[C@H]12	inconclusive: 3.72 µM [cytotoxic, full curve, poor fit]	inconclusive: 10.5 µM [rising, full curve]	inconclusive: 18.7 µM [cytotoxic, partial curve, poor fit]	inconclusive: 4.2 nM [cytotoxic, full curve, poor fit]	inconclusive: 29.6 µM [cytotoxic, partial curve, poor fit]	inconclusive: 26.4 µM [cytotoxic, partial curve, poor fit]	inactive	inconclusive: 18.7 µM [cytotoxic, partial curve, poor fit]	–	–	–	inconclusive: 20.9 µM [cytotoxic, single point]	inconclusive: 37.2 µM [cytotoxic, single point]	inconclusive: 16.6 µM [cytotoxic, partial curve]	–	–	–	–	–	inconclusive: 63.8% [cytotoxic]
C=C1C(=CC=C2CCCC3(C)[C@@H]([C@H](C)C=CC=CC(O)(CC)CC)CC[C@@H]23)C[C@@H](O)C[C@@H]1O (some centres undefined)	inconclusive: 20.9 µM [cytotoxic, partial curve, poor fit]	inconclusive: 26.4 µM [cytotoxic, partial curve, poor fit]	–	inconclusive: 33200 nM [cytotoxic, partial curve, poor fit]	active: 10.5 µM	–	active: 23500 nM	active: 20.9 µM	active: 29.6 µM	–	–	–	–	–	inconclusive: 18.7 µM [cytotoxic, partial curve]	–	inconclusive: 20.9 µM [cytotoxic, partial curve, poor fit]	inconclusive: 29.6 µM [cytotoxic, single point]	inconclusive: 37.2 µM [cytotoxic, single point]	–
CC1=C(C(=O)Nc2cc3cn[nH]c3cc2F)C(c2ccc(Cl)cc2F)N=C(c2ccnc(Cl)c2)N1 (centres undefined)	inconclusive: 16.6 µM [cytotoxic, partial curve, poor fit]	inconclusive: 26.4 µM [cytotoxic, partial curve, poor fit]	inconclusive: 37.2 µM [cytotoxic, single point]	–	inconclusive: 18.7 µM [cytotoxic, partial curve, poor fit]	active: 20.9 µM	active: 18700 nM	inconclusive: 20.9 µM [cytotoxic, single point]	–	–	–	–	–	inconclusive: 13.2 µM [cytotoxic, partial curve]	–	–	inactive	inconclusive: 26.4 µM [cytotoxic, partial curve, poor fit]	inactive	–
O=C1NC(O)CCN1[C@@H]1O[C@H](CO)[C@H](O)[C@H]1O (some centres undefined)	inconclusive: 0.526 µM [cytotoxic, full curve, poor fit]	inconclusive: 0.0047 µM [cytotoxic, full curve, poor fit]	inconclusive: 2.64 µM [cytotoxic, full curve, poor fit]	inactive	inconclusive: 0.0033 µM [cytotoxic, full curve, poor fit]	inactive	inconclusive: 3 nM [cytotoxic, full curve, poor fit]	inconclusive: 0.935 µM [cytotoxic, full curve, poor fit]	inconclusive: 20.9 µM [cytotoxic, partial curve, poor fit]	inconclusive: 2.64 µM [cytotoxic, full curve, poor fit]	inactive	inactive	–	–	–	inactive	–	–	–	–
COc1ccc2c(c1)c(C1=C(c3c[nH]c4ccccc34)C(=O)NC1=O)cn2CCCN(C)C	active: 14.8 µM	active: 0.469 µM	inconclusive: 33.2 µM [cytotoxic, single point]	–	inconclusive: 33.2 µM [cytotoxic, single point]	inconclusive: 37.2 µM [cytotoxic, single point]	–	–	inconclusive: 2.35 µM [cytotoxic, partial curve, poor fit]	–	–	active: 26.4 µM	inconclusive: 23.5 µM [cytotoxic, partial curve, poor fit]	inconclusive: 74.3 µM [cytotoxic, partial curve, poor fit]	–	–	–	inconclusive: 18.7 µM [cytotoxic, partial curve, poor fit]	–	–
Cc1cc2c(F)c(Oc3ncnn4cc(OC[C@@H](C)O)c(C)c34)ccc2[nH]1	inconclusive: 20.9 µM [cytotoxic, partial curve, poor fit]	inconclusive: 37.2 µM [rising, partial curve]	–	inconclusive: 18.7 nM [cytotoxic, full curve, poor fit]	–	–	inconclusive: 29.6 nM [cytotoxic, full curve, poor fit]	inconclusive: 4.18 µM [cytotoxic, partial curve, poor fit]	inconclusive: 37.2 µM [cytotoxic, single point]	inconclusive: 3.72 µM [cytotoxic, partial curve, poor fit]	–	–	active: 0.743 µM	inconclusive: 2.35 µM [cytotoxic, full curve]	–	inconclusive: 0.0118 µM [rising, full curve, poor fit]	inconclusive: 26.4 µM [cytotoxic, single point]	inconclusive: 16.6 µM [cytotoxic, partial curve, poor fit]	–	–
